The other results are listed elsewhere or left out. Most entries show no effect beyond the scatter of the controls.

Chains of the proteins cited; added tags and fusions are not shown. Lines headed by an entry give the natural chain unless they say otherwise; changes in a name come on top.
UniProt Q8C726: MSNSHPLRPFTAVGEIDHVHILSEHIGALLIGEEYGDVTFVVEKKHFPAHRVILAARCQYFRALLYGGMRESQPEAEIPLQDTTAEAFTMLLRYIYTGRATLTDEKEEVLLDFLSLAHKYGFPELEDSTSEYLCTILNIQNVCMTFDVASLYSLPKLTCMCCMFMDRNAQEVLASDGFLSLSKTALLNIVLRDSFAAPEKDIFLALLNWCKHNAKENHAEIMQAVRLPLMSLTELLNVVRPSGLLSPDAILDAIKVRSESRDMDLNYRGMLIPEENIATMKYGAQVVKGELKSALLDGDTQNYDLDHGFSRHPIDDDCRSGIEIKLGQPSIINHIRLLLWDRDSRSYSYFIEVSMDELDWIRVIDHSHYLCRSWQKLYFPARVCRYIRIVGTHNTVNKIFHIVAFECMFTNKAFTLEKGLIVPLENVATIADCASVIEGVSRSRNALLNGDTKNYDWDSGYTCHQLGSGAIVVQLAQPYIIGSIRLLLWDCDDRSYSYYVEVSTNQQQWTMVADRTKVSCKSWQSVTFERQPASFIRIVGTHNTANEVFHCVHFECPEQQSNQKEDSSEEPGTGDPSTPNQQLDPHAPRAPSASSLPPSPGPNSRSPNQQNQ
UniProt Q8C0Q9: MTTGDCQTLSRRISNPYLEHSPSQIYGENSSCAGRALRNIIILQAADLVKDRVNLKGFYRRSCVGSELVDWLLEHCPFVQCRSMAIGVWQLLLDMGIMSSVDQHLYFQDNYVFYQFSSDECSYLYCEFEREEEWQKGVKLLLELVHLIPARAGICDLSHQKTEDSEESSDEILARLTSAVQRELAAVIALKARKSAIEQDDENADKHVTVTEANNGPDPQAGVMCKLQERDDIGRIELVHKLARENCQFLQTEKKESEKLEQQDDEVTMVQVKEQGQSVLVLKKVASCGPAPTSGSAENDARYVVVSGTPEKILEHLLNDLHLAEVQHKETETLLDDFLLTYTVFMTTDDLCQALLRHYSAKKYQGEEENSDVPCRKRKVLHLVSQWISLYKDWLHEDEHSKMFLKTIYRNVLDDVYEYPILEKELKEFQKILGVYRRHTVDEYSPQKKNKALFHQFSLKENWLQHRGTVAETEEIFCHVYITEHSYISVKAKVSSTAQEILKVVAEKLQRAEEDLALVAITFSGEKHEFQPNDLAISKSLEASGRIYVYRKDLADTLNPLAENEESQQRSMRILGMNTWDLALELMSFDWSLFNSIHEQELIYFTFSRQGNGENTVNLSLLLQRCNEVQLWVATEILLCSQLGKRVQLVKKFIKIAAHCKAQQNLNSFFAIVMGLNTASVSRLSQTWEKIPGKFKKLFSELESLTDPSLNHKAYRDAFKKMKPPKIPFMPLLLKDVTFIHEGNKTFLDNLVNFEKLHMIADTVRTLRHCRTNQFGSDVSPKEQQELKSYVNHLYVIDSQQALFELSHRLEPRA
UniProt Q8BYK4: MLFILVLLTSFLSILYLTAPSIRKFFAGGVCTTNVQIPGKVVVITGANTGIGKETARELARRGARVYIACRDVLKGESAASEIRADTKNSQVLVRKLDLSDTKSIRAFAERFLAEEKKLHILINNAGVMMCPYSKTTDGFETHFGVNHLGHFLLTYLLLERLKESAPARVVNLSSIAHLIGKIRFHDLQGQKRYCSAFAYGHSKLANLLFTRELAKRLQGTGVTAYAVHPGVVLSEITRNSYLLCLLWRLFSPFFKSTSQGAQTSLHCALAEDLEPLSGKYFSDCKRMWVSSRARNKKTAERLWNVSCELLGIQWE
UniProt Q8C262: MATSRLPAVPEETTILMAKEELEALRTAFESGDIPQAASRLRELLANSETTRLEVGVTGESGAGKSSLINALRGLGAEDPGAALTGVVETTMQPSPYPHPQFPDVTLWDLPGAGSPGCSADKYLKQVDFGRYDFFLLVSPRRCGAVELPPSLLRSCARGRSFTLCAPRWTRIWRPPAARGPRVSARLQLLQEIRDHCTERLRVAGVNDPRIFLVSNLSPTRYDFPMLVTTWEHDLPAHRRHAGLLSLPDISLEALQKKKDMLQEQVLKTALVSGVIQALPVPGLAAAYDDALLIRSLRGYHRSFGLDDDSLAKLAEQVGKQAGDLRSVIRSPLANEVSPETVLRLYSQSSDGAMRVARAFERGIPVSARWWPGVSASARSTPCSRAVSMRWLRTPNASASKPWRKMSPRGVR
UniProt Q8C9B9: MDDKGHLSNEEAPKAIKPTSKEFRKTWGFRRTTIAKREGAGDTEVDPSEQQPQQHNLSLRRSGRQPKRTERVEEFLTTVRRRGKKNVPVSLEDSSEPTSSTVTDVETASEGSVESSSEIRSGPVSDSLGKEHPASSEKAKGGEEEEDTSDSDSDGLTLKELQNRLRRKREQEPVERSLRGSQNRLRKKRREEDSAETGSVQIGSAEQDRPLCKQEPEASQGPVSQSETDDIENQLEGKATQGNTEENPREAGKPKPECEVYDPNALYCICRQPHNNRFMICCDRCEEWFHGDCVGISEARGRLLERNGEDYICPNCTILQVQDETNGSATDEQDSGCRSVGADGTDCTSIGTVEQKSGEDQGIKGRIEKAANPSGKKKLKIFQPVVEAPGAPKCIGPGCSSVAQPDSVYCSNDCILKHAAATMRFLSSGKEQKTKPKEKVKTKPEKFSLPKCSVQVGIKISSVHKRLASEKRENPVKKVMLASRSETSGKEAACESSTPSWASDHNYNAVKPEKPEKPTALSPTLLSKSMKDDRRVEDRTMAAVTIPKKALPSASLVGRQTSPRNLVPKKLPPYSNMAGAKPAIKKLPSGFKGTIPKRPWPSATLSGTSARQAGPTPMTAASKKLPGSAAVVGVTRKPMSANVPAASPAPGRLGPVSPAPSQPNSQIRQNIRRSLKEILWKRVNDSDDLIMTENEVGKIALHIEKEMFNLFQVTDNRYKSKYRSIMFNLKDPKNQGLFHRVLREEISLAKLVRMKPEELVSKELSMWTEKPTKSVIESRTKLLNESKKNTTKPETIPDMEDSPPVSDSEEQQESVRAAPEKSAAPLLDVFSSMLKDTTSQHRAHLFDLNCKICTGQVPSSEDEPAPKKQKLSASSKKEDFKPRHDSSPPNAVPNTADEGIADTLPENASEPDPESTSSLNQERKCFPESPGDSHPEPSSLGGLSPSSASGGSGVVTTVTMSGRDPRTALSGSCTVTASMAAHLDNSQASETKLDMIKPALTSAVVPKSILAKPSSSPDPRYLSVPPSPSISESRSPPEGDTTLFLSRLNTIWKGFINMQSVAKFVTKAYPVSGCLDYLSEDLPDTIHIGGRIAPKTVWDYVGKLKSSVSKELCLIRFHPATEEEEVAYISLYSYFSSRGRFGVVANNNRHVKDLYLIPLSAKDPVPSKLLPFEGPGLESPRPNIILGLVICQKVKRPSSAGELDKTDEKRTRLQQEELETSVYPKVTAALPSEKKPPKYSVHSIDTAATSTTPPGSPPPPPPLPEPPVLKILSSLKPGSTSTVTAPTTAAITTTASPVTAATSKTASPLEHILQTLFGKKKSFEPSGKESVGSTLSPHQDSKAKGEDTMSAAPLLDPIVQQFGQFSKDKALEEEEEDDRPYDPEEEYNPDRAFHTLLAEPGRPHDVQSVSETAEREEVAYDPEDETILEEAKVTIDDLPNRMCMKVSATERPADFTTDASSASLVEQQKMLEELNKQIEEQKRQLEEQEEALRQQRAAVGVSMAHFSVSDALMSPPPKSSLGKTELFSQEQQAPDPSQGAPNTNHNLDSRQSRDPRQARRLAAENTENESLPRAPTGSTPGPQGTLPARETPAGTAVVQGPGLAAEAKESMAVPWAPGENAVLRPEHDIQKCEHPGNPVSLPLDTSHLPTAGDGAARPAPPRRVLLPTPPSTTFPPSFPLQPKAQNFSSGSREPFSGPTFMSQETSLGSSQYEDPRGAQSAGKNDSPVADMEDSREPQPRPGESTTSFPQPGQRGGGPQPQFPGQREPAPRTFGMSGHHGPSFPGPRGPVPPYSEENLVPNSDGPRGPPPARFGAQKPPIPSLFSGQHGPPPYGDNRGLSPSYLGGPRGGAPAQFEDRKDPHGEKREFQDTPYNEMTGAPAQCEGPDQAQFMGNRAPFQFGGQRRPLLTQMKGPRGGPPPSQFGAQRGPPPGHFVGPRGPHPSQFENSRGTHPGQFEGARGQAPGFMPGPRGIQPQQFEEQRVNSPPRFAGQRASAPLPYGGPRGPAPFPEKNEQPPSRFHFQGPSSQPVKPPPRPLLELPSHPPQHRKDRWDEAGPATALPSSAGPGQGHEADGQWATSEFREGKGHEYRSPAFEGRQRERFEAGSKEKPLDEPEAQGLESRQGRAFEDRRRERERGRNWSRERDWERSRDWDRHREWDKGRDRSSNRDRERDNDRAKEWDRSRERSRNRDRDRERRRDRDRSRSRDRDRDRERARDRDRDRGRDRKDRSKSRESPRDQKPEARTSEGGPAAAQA

Compound in this test: CN[C@@H]1C[C@H]2O[C@@](C)([C@@H]1OC)n1c3ccccc3c3c4c(c5c6ccccc6n2c5c31)C(=O)NC4 [staurosporine]
Put plainly: log2 fold change of tryptic peptide abundance, ligand vs vehicle (limited proteolysis) (log2 ratio); higher = more trypsin-susceptible (destabilized). Particulars: ligand concentration: 20 uM; sample: mouse liver crude lysate; replicate design: treated separately.
Turning to “UniProt Q8C726 (peptide sequence: TALLNIVLR, peptide start residue: 184)”, the log2 fold change was -0.413.
Under “UniProt Q8C0Q9 (peptide sequence: TFLDNLVNFEK, peptide start residue: 746)” stands -0.0697; under “UniProt Q8BYK4 (peptide sequence: LANLLFTR, peptide start residue: 205)”, -0.146; under “UniProt Q8C262 (peptide sequence: SSLINALR, peptide start residue: 66)”, 0.143.
Regarding “UniProt Q8C9B9 (peptide sequence: EKPLDEPEAQGLESR, peptide start residue: 2109)”, the log2 fold change is -0.292.

The record behind these values is the supplement of paper PMC12819154, “High-throughput peptide-centric local stability assay extends protein–ligand identification to membrane proteins, tissues and bacteria” (Nature Structural & Molecular Biology, 2025).
